Test results: publication PMC8284019
These are yes or no findings as the source states them, for the method shown. In cells and extracts the contact can be indirect. Some results given as binding are weak or reduced against the parent protein; the word gives no strength.

Protein sequences, listed by entry. Tags and fused reporters are not part of them.
UniProt O95076: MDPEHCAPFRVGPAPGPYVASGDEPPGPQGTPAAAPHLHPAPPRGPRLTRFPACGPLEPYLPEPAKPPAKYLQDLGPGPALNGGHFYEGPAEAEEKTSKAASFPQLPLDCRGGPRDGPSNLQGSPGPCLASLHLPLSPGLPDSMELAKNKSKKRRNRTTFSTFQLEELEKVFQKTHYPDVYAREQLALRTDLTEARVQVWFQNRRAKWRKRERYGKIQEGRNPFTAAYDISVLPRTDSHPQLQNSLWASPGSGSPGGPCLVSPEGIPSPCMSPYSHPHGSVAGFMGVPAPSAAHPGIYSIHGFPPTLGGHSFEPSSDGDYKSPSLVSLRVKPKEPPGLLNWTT

Legend:
[1] = target: T1, lysine demethylase 2B (human) (UniProt Q8NHM5); assay: co-IP; C33A or ME180 cells transfected with expression vector of ALX3 or KDM2B, 48 h, lysed in RIPA buffer; IP with Protein G plus-Agarose and anti-Flag Affinity Gel; ALX3 and KDM2B in the precipitates detected by western blot
T1 sequence: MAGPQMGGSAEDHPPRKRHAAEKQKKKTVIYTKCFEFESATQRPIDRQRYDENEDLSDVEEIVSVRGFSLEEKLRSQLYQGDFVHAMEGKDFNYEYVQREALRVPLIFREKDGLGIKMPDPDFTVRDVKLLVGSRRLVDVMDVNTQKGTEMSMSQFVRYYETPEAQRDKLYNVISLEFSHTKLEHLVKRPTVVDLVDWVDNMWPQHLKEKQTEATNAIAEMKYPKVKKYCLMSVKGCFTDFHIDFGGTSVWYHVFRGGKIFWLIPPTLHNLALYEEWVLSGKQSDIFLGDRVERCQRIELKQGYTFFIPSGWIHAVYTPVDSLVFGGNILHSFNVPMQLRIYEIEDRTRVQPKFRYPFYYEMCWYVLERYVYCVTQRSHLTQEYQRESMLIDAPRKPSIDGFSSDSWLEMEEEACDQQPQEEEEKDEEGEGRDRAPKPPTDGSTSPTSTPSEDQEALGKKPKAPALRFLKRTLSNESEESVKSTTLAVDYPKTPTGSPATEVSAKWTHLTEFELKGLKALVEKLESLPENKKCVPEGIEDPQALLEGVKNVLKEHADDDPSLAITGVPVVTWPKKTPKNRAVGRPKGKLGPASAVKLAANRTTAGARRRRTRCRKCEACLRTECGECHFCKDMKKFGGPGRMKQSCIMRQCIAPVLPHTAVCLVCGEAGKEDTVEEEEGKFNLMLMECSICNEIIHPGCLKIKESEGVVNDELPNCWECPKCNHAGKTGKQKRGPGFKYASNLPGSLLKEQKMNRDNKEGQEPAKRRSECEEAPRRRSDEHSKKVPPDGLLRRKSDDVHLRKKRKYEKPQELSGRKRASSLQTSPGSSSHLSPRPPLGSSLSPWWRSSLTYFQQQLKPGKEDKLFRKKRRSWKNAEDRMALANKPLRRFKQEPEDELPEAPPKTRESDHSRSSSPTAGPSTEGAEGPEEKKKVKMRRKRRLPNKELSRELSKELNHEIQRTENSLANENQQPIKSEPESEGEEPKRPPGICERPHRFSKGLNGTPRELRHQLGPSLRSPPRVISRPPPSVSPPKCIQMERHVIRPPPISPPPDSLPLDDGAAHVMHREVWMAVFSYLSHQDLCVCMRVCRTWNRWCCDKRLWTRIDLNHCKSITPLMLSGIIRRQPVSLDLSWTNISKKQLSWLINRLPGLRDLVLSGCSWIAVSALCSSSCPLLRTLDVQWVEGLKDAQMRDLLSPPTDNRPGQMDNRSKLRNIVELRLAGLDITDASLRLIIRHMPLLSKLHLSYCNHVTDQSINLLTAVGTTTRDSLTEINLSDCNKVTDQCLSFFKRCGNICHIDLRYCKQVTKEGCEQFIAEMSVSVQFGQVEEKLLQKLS

ALX3 (human) = ALX3 (human) (UniProt O95076); assay: as above

For ALX3 (from UniProt O95076 1-343), the binding [1] was “binds”.

B1: lysine demethylase 2B (protein, UniProt Q8NHM5 1-1336)
chain: MAGPQMGGSAEDHPPRKRHAAEKQKKKTVIYTKCFEFESATQRPIDRQRYDENEDLSDVEEIVSVRGFSLEEKLRSQLYQGDFVHAMEGKDFNYEYVQREALRVPLIFREKDGLGIKMPDPDFTVRDVKLLVGSRRLVDVMDVNTQKGTEMSMSQFVRYYETPEAQRDKLYNVISLEFSHTKLEHLVKRPTVVDLVDWVDNMWPQHLKEKQTEATNAIAEMKYPKVKKYCLMSVKGCFTDFHIDFGGTSVWYHVFRGGKIFWLIPPTLHNLALYEEWVLSGKQSDIFLGDRVERCQRIELKQGYTFFIPSGWIHAVYTPVDSLVFGGNILHSFNVPMQLRIYEIEDRTRVQPKFRYPFYYEMCWYVLERYVYCVTQRSHLTQEYQRESMLIDAPRKPSIDGFSSDSWLEMEEEACDQQPQEEEEKDEEGEGRDRAPKPPTDGSTSPTSTPSEDQEALGKKPKAPALRFLKRTLSNESEESVKSTTLAVDYPKTPTGSPATEVSAKWTHLTEFELKGLKALVEKLESLPENKKCVPEGIEDPQALLEGVKNVLKEHADDDPSLAITGVPVVTWPKKTPKNRAVGRPKGKLGPASAVKLAANRTTAGARRRRTRCRKCEACLRTECGECHFCKDMKKFGGPGRMKQSCIMRQCIAPVLPHTAVCLVCGEAGKEDTVEEEEGKFNLMLMECSICNEIIHPGCLKIKESEGVVNDELPNCWECPKCNHAGKTGKQKRGPGFKYASNLPGSLLKEQKMNRDNKEGQEPAKRRSECEEAPRRRSDEHSKKVPPDGLLRRKSDDVHLRKKRKYEKPQELSGRKRASSLQTSPGSSSHLSPRPPLGSSLSPWWRSSLTYFQQQLKPGKEDKLFRKKRRSWKNAEDRMALANKPLRRFKQEPEDELPEAPPKTRESDHSRSSSPTAGPSTEGAEGPEEKKKVKMRRKRRLPNKELSRELSKELNHEIQRTENSLANENQQPIKSEPESEGEEPKRPPGICERPHRFSKGLNGTPRELRHQLGPSLRSPPRVISRPPPSVSPPKCIQMERHVIRPPPISPPPDSLPLDDGAAHVMHREVWMAVFSYLSHQDLCVCMRVCRTWNRWCCDKRLWTRIDLNHCKSITPLMLSGIIRRQPVSLDLSWTNISKKQLSWLINRLPGLRDLVLSGCSWIAVSALCSSSCPLLRTLDVQWVEGLKDAQMRDLLSPPTDNRPGQMDNRSKLRNIVELRLAGLDITDASLRLIIRHMPLLSKLHLSYCNHVTDQSINLLTAVGTTTRDSLTEINLSDCNKVTDQCLSFFKRCGNICHIDLRYCKQVTKEGCEQFIAEMSVSVQFGQVEEKLLQKLS
For B1, the binding (ALX3 (human)) was “binds”.
